Test results reported in article PMC7073115.
No constants are given. Whether binding was seen depends on the method and setting. For part of these data: In cells and extracts the contact can be indirect. Some entries that bind do so weakly or less than the wild type. For part of these data: Tags and fused reporters may be left off the sequences shown.

T1: BAK1 kinase domain (yeast two-hybrid bait in pGBKT7) (Arabidopsis thaliana) (UniProt Q94F62)
T1 sequence: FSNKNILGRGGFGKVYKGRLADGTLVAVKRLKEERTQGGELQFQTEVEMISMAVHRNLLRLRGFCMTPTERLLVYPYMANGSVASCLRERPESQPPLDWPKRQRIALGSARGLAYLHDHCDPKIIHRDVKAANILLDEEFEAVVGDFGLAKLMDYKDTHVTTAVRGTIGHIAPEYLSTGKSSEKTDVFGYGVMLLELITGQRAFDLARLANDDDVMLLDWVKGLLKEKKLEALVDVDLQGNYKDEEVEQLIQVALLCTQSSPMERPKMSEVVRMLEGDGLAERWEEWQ

T2: BAK1-CYFP (Arabidopsis thaliana) (UniProt Q94F62)
T2 sequence: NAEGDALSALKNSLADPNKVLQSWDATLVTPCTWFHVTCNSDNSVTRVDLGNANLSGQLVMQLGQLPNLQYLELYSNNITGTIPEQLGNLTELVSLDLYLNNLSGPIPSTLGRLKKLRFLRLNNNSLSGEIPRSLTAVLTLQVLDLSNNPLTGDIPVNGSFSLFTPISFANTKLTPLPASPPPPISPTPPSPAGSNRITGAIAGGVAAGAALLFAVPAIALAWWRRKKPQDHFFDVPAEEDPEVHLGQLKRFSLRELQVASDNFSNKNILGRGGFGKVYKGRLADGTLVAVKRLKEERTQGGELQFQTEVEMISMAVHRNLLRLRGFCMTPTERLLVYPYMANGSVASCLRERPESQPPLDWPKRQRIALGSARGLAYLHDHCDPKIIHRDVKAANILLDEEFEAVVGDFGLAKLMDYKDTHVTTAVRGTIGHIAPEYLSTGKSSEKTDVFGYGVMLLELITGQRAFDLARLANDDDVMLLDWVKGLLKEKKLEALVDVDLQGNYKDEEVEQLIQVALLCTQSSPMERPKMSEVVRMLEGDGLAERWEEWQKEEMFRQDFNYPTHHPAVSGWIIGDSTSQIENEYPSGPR

T3: BAK1-HA (35S::BAK1-HA) (Arabidopsis thaliana) (UniProt Q94F62)
T3 sequence: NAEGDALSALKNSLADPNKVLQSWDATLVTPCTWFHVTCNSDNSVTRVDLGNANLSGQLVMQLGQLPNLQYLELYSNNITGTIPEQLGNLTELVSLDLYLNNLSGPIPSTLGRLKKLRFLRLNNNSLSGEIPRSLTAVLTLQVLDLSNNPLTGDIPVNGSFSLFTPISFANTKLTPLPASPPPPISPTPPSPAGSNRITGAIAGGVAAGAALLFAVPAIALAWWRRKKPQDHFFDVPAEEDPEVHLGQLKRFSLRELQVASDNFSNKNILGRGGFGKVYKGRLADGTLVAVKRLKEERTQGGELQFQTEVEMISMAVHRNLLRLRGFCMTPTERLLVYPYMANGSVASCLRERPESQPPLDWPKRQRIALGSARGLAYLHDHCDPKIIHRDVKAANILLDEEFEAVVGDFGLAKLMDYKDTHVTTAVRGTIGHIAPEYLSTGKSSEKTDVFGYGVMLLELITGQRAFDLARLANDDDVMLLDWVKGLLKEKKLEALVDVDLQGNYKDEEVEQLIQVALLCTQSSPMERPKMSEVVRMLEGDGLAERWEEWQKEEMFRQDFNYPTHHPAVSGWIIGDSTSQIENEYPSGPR


Key:
[1] = biological target: T1, BAK1 kinase domain (yeast two-hybrid bait in pGBKT7) (Arabidopsis thaliana); experiment: two-hybrid; BAK1 kinase domain in pGBKT7 as bait, full-length CATs in pGADT7 as prey; AH109 yeast; growth on SD/-Ade/-His/-Leu/-Trp and X-galactosidase activity
[2] = biological target: T2, BAK1-CYFP (Arabidopsis thaliana); experiment: split reporter; BiFC: BAK1-CYFP and CATs-NYFP co-expressed with P19 in N. benthamiana leaves; YFP imaged by confocal microscopy 3 days after infiltration
[3] = biological target: T3, BAK1-HA (35S::BAK1-HA) (Arabidopsis thaliana); experiment: co-IP; BAK1-HA and CAT1/2/3-MYC co-expressed in N. benthamiana leaves with MG132 (25 uM); IP with anti-HA affinity matrix, Western blot with anti-MYC antibody

Row | Binder | binding [1] | binding [2] | binding [3]
1 | CAT2-NYFP (enzyme, UniProt P25819 1-492) MDPYKYRPASSYNSPFFTTNSGAPVWNNNSSMTVGPRGPILLEDYHLVEKLANFDRERIPERVVHARGASAKGFFEVTHDISNLTCADFLRAPGVQTPVIVRFSTVIHERGSPETLRDPRGFAVKFYTREGNFDLVGNNFPVFFIRDGMKFPDMVHALKPNPKSHIQENWRILDFFSHHPESLNMFTFLFDDIGIPQDYRHMDGSGVNTYMLINKAGKAHYVKFHWKPTCGVKSLLEEDAIRVGGTNHSHATQDLYDSIAAGNYPEWKLFIQIIDPADEDKFDFDPLDVTKTWPEDILPLQPVGRMVLNKNIDNFFAENEQLAFCPAIIVPGIHYSDDKLLQTRVFSYADTQRHRLGPNYLQLPVNAPKCAHHNNHHEGFMNFMHRDEEVNYFPSRYDQVRHAEKYPTPPAVCSGKRERCIIEKENNFKEPGERYRTFTPERQERFIQRWIDALSDPRITHEIRSIWISYWSQADKSLGQKLASRLNVRPSI |  | binds | 
2 | CAT2-MYC (35S::CAT2-MYC) (enzyme, UniProt P25819 1-492) MDPYKYRPASSYNSPFFTTNSGAPVWNNNSSMTVGPRGPILLEDYHLVEKLANFDRERIPERVVHARGASAKGFFEVTHDISNLTCADFLRAPGVQTPVIVRFSTVIHERGSPETLRDPRGFAVKFYTREGNFDLVGNNFPVFFIRDGMKFPDMVHALKPNPKSHIQENWRILDFFSHHPESLNMFTFLFDDIGIPQDYRHMDGSGVNTYMLINKAGKAHYVKFHWKPTCGVKSLLEEDAIRVGGTNHSHATQDLYDSIAAGNYPEWKLFIQIIDPADEDKFDFDPLDVTKTWPEDILPLQPVGRMVLNKNIDNFFAENEQLAFCPAIIVPGIHYSDDKLLQTRVFSYADTQRHRLGPNYLQLPVNAPKCAHHNNHHEGFMNFMHRDEEVNYFPSRYDQVRHAEKYPTPPAVCSGKRERCIIEKENNFKEPGERYRTFTPERQERFIQRWIDALSDPRITHEIRSIWISYWSQADKSLGQKLASRLNVRPSI |  |  | binds
3 | CAT3-NYFP (enzyme, UniProt Q42547 1-492) MDPYKYRPSSAYNAPFYTTNGGAPVSNNISSLTIGERGPVLLEDYHLIEKVANFTRERIPERVVHARGISAKGFFEVTHDISNLTCADFLRAPGVQTPVIVRFSTVVHERASPETMRDIRGFAVKFYTREGNFDLVGNNTPVFFIRDGIQFPDVVHALKPNPKTNIQEYWRILDYMSHLPESLLTWCWMFDDVGIPQDYRHMEGFGVHTYTLIAKSGKVLFVKFHWKPTCGIKNLTDEEAKVVGGANHSHATKDLHDAIASGNYPEWKLFIQTMDPADEDKFDFDPLDVTKIWPEDILPLQPVGRLVLNRTIDNFFNETEQLAFNPGLVVPGIYYSDDKLLQCRIFAYGDTQRHRLGPNYLQLPVNAPKCAHHNNHHEGFMNFMHRDEEINYYPSKFDPVRCAEKVPTPTNSYTGIRTKCVIKKENNFKQAGDRYRSWAPDRQDRFVKRWVEILSEPRLTHEIRGIWISYWSQADRSLGQKLASRLNVRPSI |  | binds | 
4 | CAT3-MYC (35S::CAT3-MYC) (enzyme, UniProt Q42547 1-492) MDPYKYRPSSAYNAPFYTTNGGAPVSNNISSLTIGERGPVLLEDYHLIEKVANFTRERIPERVVHARGISAKGFFEVTHDISNLTCADFLRAPGVQTPVIVRFSTVVHERASPETMRDIRGFAVKFYTREGNFDLVGNNTPVFFIRDGIQFPDVVHALKPNPKTNIQEYWRILDYMSHLPESLLTWCWMFDDVGIPQDYRHMEGFGVHTYTLIAKSGKVLFVKFHWKPTCGIKNLTDEEAKVVGGANHSHATKDLHDAIASGNYPEWKLFIQTMDPADEDKFDFDPLDVTKIWPEDILPLQPVGRLVLNRTIDNFFNETEQLAFNPGLVVPGIYYSDDKLLQCRIFAYGDTQRHRLGPNYLQLPVNAPKCAHHNNHHEGFMNFMHRDEEINYYPSKFDPVRCAEKVPTPTNSYTGIRTKCVIKKENNFKQAGDRYRSWAPDRQDRFVKRWVEILSEPRLTHEIRGIWISYWSQADRSLGQKLASRLNVRPSI |  |  | binds

Further lines, results first:

Row | binding [1] | binding [2] | binding [3] | Binder
5 | binds |  |  | Catalase 2 (CAT2), yeast two-hybrid prey in pGADT7 (enzyme, UniProt P25819 1-492) MDPYKYRPASSYNSPFFTTNSGAPVWNNNSSMTVGPRGPILLEDYHLVEKLANFDRERIPERVVHARGASAKGFFEVTHDISNLTCADFLRAPGVQTPVIVRFSTVIHERGSPETLRDPRGFAVKFYTREGNFDLVGNNFPVFFIRDGMKFPDMVHALKPNPKSHIQENWRILDFFSHHPESLNMFTFLFDDIGIPQDYRHMDGSGVNTYMLINKAGKAHYVKFHWKPTCGVKSLLEEDAIRVGGTNHSHATQDLYDSIAAGNYPEWKLFIQIIDPADEDKFDFDPLDVTKTWPEDILPLQPVGRMVLNKNIDNFFAENEQLAFCPAIIVPGIHYSDDKLLQTRVFSYADTQRHRLGPNYLQLPVNAPKCAHHNNHHEGFMNFMHRDEEVNYFPSRYDQVRHAEKYPTPPAVCSGKRERCIIEKENNFKEPGERYRTFTPERQERFIQRWIDALSDPRITHEIRSIWISYWSQADKSLGQKLASRLNVRPSI
6 | binds |  |  | Catalase 3 (CAT3), yeast two-hybrid prey in pGADT7 (enzyme, UniProt Q42547 1-492) MDPYKYRPSSAYNAPFYTTNGGAPVSNNISSLTIGERGPVLLEDYHLIEKVANFTRERIPERVVHARGISAKGFFEVTHDISNLTCADFLRAPGVQTPVIVRFSTVVHERASPETMRDIRGFAVKFYTREGNFDLVGNNTPVFFIRDGIQFPDVVHALKPNPKTNIQEYWRILDYMSHLPESLLTWCWMFDDVGIPQDYRHMEGFGVHTYTLIAKSGKVLFVKFHWKPTCGIKNLTDEEAKVVGGANHSHATKDLHDAIASGNYPEWKLFIQTMDPADEDKFDFDPLDVTKIWPEDILPLQPVGRLVLNRTIDNFFNETEQLAFNPGLVVPGIYYSDDKLLQCRIFAYGDTQRHRLGPNYLQLPVNAPKCAHHNNHHEGFMNFMHRDEEINYYPSKFDPVRCAEKVPTPTNSYTGIRTKCVIKKENNFKQAGDRYRSWAPDRQDRFVKRWVEILSEPRLTHEIRGIWISYWSQADRSLGQKLASRLNVRPSI
